Results as given in the supplement of paper PMC12823440, “Inhibitors supercharge kinase turnover through native proteolytic circuits” (Nature, 2025).
Structures can show the parent of a compound that is named as a salt. Some of the results follow. The calls rarely recur for the same compound in another form.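 Kinases were expressed as nanoluciferase fusions in K562 cells and luminescence was read every 4 h between 2 and 18 h as percent of control, DMSO set to 100% and a positive control to 0%. A time point counts as decreased when the signal drops significantly (2 sigma). The hit call is the authors' own, does not follow from the count of time points alone, and its rule is not shown.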

Amino acid sequences for entries named in this document (tags omitted). A change or cut given only in a name is not applied to a line headed by its entry.
UniProt Q9Y616: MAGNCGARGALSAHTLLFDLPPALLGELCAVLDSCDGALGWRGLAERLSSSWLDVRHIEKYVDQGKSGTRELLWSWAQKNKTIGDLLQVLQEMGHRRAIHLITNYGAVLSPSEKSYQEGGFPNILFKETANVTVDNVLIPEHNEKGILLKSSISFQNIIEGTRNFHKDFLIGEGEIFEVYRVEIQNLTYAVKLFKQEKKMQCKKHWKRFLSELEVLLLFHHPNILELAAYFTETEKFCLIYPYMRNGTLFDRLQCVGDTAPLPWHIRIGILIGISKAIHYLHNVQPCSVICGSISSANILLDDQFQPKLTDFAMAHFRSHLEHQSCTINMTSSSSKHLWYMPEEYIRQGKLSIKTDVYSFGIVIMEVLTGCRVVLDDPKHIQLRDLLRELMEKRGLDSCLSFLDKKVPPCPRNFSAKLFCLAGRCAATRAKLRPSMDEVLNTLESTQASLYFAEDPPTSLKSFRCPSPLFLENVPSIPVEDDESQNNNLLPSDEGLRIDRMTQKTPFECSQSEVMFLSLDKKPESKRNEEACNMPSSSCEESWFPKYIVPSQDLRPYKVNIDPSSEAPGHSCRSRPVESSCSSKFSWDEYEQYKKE
UniProt P23458: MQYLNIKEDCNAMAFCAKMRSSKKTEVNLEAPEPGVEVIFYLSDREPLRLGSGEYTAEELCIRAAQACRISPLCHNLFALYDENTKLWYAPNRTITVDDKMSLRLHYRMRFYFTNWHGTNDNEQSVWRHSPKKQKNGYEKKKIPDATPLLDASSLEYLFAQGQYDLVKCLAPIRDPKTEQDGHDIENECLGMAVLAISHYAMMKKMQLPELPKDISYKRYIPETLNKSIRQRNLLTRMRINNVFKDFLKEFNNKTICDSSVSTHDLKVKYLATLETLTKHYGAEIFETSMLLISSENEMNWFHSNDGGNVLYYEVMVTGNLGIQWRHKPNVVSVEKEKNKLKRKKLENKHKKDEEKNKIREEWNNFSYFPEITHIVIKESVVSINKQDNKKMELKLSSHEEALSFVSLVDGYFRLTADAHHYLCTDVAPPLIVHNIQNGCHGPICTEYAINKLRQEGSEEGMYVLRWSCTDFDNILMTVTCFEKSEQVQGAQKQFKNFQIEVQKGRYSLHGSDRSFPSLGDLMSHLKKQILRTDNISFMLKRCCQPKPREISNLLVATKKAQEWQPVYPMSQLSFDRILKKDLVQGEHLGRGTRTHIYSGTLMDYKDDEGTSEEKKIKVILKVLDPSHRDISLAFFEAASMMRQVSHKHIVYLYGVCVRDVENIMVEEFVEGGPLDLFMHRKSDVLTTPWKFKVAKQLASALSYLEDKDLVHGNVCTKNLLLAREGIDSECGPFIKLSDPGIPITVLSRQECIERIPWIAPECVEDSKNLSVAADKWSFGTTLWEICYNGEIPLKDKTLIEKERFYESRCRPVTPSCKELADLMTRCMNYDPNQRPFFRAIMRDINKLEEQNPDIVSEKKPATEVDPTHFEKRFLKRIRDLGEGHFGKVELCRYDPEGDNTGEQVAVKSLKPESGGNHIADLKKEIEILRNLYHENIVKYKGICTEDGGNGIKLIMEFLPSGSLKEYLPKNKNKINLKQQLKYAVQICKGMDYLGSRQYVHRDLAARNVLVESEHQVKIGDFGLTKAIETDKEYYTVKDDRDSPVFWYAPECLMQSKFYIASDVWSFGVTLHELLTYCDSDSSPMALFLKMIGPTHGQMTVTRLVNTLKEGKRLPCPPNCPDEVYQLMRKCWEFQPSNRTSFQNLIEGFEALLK
UniProt P06239: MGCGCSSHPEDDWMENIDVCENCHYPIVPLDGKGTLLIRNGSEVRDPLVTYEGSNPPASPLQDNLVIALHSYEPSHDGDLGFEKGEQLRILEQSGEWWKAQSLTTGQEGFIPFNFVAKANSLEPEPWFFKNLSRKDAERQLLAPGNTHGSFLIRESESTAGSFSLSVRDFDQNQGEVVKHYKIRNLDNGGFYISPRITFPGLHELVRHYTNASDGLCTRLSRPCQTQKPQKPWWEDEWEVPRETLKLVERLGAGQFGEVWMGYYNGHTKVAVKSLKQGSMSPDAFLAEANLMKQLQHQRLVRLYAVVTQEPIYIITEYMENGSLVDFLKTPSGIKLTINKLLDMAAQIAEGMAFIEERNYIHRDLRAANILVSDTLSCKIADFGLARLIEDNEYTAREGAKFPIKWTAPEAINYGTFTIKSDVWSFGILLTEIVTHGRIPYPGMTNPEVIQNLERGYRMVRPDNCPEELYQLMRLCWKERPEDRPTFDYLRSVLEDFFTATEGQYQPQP
UniProt P53667: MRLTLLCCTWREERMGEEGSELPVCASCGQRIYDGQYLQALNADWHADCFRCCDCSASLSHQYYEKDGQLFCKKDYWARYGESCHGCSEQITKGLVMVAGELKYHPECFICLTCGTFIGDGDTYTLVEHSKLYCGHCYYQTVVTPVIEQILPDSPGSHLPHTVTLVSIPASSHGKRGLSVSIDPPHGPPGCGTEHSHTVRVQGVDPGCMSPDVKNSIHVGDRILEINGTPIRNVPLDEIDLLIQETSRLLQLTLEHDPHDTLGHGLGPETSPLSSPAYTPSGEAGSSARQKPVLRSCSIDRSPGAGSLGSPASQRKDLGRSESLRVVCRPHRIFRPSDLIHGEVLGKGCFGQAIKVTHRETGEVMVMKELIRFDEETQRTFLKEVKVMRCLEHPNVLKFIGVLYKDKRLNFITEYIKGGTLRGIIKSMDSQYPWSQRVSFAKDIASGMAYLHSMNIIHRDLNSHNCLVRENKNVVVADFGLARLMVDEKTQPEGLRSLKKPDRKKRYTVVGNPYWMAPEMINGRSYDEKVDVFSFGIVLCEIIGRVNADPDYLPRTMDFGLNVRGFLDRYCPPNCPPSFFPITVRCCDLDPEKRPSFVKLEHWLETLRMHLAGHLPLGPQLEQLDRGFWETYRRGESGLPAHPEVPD
UniProt P53671: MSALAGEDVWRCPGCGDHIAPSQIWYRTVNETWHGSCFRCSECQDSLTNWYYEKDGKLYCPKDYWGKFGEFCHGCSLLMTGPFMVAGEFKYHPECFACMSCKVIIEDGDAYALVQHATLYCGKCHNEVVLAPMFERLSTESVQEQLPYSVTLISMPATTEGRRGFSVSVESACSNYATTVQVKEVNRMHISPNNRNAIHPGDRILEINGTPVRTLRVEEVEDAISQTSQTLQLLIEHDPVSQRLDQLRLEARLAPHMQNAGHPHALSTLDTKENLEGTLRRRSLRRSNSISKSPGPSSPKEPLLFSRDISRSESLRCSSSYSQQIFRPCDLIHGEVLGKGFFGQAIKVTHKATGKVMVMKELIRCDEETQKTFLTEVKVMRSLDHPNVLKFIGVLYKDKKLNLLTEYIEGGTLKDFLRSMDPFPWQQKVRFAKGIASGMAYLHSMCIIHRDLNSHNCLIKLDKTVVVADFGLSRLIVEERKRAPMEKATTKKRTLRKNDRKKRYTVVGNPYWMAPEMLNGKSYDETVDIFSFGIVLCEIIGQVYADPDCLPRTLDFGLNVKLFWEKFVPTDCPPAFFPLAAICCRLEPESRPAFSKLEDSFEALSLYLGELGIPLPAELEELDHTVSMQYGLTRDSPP
UniProt Q8IWU2: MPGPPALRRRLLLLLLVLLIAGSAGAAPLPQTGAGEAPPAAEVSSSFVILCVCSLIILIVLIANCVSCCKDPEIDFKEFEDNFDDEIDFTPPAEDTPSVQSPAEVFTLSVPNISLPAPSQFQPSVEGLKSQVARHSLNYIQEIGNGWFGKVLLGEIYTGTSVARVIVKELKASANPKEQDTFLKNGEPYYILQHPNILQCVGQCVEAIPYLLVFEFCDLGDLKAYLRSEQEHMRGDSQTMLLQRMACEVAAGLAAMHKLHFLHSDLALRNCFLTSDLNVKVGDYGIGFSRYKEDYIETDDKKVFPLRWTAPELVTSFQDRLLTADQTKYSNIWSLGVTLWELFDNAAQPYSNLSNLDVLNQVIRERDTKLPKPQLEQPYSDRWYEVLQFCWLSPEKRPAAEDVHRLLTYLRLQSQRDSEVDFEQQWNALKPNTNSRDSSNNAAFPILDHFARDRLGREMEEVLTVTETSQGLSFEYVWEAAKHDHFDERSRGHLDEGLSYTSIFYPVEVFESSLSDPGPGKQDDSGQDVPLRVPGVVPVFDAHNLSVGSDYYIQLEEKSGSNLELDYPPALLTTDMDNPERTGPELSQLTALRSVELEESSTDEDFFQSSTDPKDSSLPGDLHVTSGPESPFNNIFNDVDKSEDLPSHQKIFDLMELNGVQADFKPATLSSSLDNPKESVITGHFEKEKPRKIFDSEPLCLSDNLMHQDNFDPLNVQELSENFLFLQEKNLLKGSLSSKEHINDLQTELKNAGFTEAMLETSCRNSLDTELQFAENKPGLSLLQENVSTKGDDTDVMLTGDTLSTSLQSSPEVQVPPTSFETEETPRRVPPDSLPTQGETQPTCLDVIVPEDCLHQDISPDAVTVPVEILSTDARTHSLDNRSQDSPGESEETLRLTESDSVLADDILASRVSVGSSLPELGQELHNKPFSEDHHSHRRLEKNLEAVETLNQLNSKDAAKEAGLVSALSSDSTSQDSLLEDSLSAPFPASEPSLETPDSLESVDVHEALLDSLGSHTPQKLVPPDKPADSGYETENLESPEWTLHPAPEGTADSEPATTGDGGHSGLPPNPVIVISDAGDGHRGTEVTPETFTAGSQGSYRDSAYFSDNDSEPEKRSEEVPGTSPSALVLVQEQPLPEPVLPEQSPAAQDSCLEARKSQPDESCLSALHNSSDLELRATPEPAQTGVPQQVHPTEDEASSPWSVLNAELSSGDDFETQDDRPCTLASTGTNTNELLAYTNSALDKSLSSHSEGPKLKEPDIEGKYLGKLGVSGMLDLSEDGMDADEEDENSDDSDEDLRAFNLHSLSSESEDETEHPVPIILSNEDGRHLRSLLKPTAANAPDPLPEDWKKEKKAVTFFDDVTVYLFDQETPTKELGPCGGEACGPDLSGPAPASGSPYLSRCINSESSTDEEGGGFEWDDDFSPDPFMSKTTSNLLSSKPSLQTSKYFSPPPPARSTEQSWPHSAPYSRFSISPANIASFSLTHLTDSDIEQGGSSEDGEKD
UniProt P07948: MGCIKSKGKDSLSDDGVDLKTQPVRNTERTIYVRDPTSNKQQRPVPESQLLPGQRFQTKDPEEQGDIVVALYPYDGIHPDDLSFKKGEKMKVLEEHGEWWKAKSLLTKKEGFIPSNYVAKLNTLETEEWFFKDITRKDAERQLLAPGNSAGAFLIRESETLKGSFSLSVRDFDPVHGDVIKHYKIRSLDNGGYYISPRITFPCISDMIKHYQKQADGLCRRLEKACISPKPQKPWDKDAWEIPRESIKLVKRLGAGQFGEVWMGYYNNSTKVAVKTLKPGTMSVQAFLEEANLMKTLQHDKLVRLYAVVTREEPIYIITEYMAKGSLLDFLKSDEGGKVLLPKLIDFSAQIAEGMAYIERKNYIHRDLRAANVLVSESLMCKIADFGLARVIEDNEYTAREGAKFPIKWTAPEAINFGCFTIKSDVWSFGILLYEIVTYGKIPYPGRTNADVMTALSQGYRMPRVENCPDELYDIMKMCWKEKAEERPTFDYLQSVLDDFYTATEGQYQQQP
UniProt Q12851: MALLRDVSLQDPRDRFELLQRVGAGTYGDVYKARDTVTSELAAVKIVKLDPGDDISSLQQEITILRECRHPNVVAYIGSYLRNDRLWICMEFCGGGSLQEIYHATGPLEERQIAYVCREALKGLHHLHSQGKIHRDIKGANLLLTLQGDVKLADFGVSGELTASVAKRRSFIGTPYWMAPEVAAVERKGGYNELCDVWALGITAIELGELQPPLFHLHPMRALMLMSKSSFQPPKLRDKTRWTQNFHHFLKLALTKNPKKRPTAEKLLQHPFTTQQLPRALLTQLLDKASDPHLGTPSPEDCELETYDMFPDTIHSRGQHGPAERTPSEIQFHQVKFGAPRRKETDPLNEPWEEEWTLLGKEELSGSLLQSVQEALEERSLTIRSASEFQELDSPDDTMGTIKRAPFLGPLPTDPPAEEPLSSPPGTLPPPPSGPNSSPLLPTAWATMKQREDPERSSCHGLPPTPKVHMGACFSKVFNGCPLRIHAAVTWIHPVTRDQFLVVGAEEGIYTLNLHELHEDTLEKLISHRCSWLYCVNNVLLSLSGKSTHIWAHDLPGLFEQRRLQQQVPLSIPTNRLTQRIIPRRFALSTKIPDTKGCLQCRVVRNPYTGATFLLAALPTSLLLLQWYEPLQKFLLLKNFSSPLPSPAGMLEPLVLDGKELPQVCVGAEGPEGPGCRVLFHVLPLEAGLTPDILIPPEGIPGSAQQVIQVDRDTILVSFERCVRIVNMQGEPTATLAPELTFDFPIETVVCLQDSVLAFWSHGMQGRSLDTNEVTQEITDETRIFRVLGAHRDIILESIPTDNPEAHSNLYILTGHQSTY

How the values were obtained:
Assay in all cases: kinase-Nluc reporter destabilization hit call (1 = scored as downregulated) (binary); higher = compound decreases kinase abundance
Conditions in all cases: K562; 2-18 h
IRAK3 = IRAK3 (UniProt Q9Y616)
JAK1 = JAK1 (UniProt P23458)
LCK = LCK (UniProt P06239)
LIMK1 = LIMK1 (UniProt P53667)
LIMK2 = LIMK2 (UniProt P53671)
LMTK2 = LMTK2 (UniProt Q8IWU2)
LYN = LYN (UniProt P07948)
MAP2K1 = MAP2K1 (UniProt Q02750)
MAP2K2 = MAP2K2 (UniProt P36507)
MAP4K2 = MAP4K2 (UniProt Q12851)

Row | SMILES | kinase-Nluc reporter destabilization hit call (IRAK3) | kinase-Nluc reporter destabilization hit call (JAK1) | kinase-Nluc reporter destabilization hit call (LCK) | kinase-Nluc reporter destabilization hit call (LIMK1) | kinase-Nluc reporter destabilization hit call (LIMK2) | kinase-Nluc reporter destabilization hit call (LMTK2) | kinase-Nluc reporter destabilization hit call (LYN) | kinase-Nluc reporter destabilization hit call (MAP2K1) | kinase-Nluc reporter destabilization hit call (MAP2K2) | kinase-Nluc reporter destabilization hit call (MAP4K2)
1 | CC[C@@](C)(Nc1ccnc(-c2c[nH]c3ncccc23)n1)C(=O)NCC(F)(F)F [Decernotinib] (10 µM) | inactive: 0 | inactive: 0 | inactive: 0 | inactive: 0 | inactive: 0 | inactive: 0 | inactive: 0 | inactive: 0 | inactive: 0 | inactive: 0
2 | COc1cc(N(C)CCN(C)C)c(N)cc1Nc1nccc(-c2cn(C)c3ccccc23)n1 [Mutated EGFR-IN-1] (10 µM) | inactive: 0 | inactive: 0 | inactive: 0 | inactive: 0 | inactive: 0 | inactive: 0 | inactive: 0 | inactive: 0 | inactive: 0 | inactive: 0
3 | CCCCCCCC/C=C\CCCCCCCCCCCC(=O)O [Erucic acid] (10 µM) | inactive: 0 | inactive: 0 | inactive: 0 | inactive: 0 | inactive: 0 | inactive: 0 | inactive: 0 | inactive: 0 | inactive: 0 | inactive: 0
4 | O=C1NC(=O)C(c2cnc3ccccn23)=C1c1cn2c3c(cc(F)cc13)CNCC2 [GSK-3 inhibitor 1] (2.5 µM) | inactive: 0 | inactive: 0 | inactive: 0 | inactive: 0 | inactive: 0 | inactive: 0 | inactive: 0 | inactive: 0 | inactive: 0 | inactive: 0
5 | CC(C)(O)[C@H]1CC[C@H](Nc2ccc3ncc(-c4cccc(C(F)(F)F)c4)n3n2)CC1 (10 µM) | inactive: 0 | inactive: 0 | inactive: 0 | inactive: 0 | inactive: 0 | inactive: 0 | inactive: 0 | inactive: 0 | inactive: 0 | inactive: 0
6 | CNC(=O)c1ccccc1Oc1nc(Nc2cc(OC)c(OC)c(OC)c2)ncc1Br (2.5 µM) | inactive: 0 | inactive: 0 | inactive: 0 | inactive: 0 | inactive: 0 | inactive: 0 | inactive: 0 | inactive: 0 | inactive: 0 | inactive: 0
7 | NC1=NCCN1CC(=O)O [Cyclocreatine] (10 µM) | inactive: 0 | inactive: 0 | inactive: 0 | inactive: 0 | inactive: 0 | inactive: 0 | inactive: 0 | inactive: 0 | inactive: 0 | inactive: 0
8 | COc1ccc(/C=C/C(=O)C2(C(=O)/C=C/c3ccc(OC)c(OC)c3)CCCCC2)cc1OC (2.5 µM) | inactive: 0 | inactive: 0 | inactive: 0 | inactive: 0 | inactive: 0 | inactive: 0 | inactive: 0 | inactive: 0 | inactive: 0 | inactive: 0
9 | Cc1nc(-c2cnn(C)c2)nc2c1[nH]c1ncc(-c3ccc(N4CCN(C)CC4)cc3)cc12 [GNE 220 (hydrochloride)] (10 µM) | inactive: 0 | inactive: 0 | inactive: 0 | inactive: 0 | inactive: 0 | inactive: 0 | inactive: 0 | inactive: 0 | inactive: 0 | inactive: 0
10 | COc1ccc2cc3[n+](cc2c1OC)CCc1cc(O)c(O)cc1-3 [Demethyleneberberine] (10 µM) | inactive: 0 | inactive: 0 | inactive: 0 | inactive: 0 | inactive: 0 | inactive: 0 | inactive: 0 | inactive: 0 | inactive: 0 | inactive: 0
11 | CC(=O)N1CCC(c2cc(-c3ccc(NC(=O)c4cccn(-c5ccc(F)cc5)c4=O)cc3F)c3c(N)ncnn23)CC1 (0.5 µM) | inactive: 0 | inactive: 0 | inactive: 0 | inactive: 0 | inactive: 0 | inactive: 0 | inactive: 0 | inactive: 0 | inactive: 0 | inactive: 0
12 | CNc1cc(Nc2cccn(-c3ccccn3)c2=O)nn2c(C(=O)N[C@@H]3C[C@@H]3F)cnc12 (2.5 µM) | inactive: 0 | inactive: 0 | inactive: 0 | inactive: 0 | inactive: 0 | inactive: 0 | inactive: 0 | inactive: 0 | inactive: 0 | inactive: 0
13 | CN(C)S(=O)(=O)c1ccc2c(c1)/C(=C/c1cc3c([nH]1)CCCC3)C(=O)N2 (2.5 µM) | inactive: 0 | inactive: 0 | active: 1 | inactive: 0 | inactive: 0 | inactive: 0 | inactive: 0 | inactive: 0 | inactive: 0 | inactive: 0
14 | Cc1cc(Nc2ncnc3ccc(-c4ccc(CNCCS(C)(=O)=O)o4)cc23)ccc1Oc1ccn2ncnc2c1 [ARRY-380 (analog )] (2.5 µM) | inactive: 0 | inactive: 0 | inactive: 0 | inactive: 0 | inactive: 0 | inactive: 0 | inactive: 0 | inactive: 0 | inactive: 0 | inactive: 0
15 | O=C1O[C@H]([C@@H](O)CO)C(O)=C1OP(=O)(O)O [2-Phospho-L-ascorbic acid (trisodium)] (10 µM) | inactive: 0 | inactive: 0 | inactive: 0 | inactive: 0 | inactive: 0 | inactive: 0 | inactive: 0 | inactive: 0 | inactive: 0 | inactive: 0
16 | CC(C)(C[C@H](N)C(=O)O)C(F)F [NV-5138 (hydrochloride)] (10 µM) | inactive: 0 | inactive: 0 | inactive: 0 | inactive: 0 | inactive: 0 | inactive: 0 | inactive: 0 | inactive: 0 | inactive: 0 | inactive: 0
17 | CC(C)S(=O)(=O)c1ccc2nccc(Nc3ccc4scnc4c3)c2c1 (10 µM) | inactive: 0 | inactive: 0 | inactive: 0 | inactive: 0 | inactive: 0 | inactive: 0 | inactive: 0 | inactive: 0 | inactive: 0 | inactive: 0

3 compounds from above, reduced to kinase-Nluc reporter destabilization hit call (IRAK3), kinase-Nluc reporter destabilization hit call (LIMK1) and kinase-Nluc reporter destabilization hit call (LMTK2):
Row	SMILES	kinase-Nluc reporter destabilization hit call (IRAK3)	kinase-Nluc reporter destabilization hit call (LIMK1)	kinase-Nluc reporter destabilization hit call (LMTK2)
6	CNC(=O)c1ccccc1Oc1nc(Nc2cc(OC)c(OC)c(OC)c2)ncc1Br (2.5 µM)	inactive: 0	inactive: 0	inactive: 0
7	NC1=NCCN1CC(=O)O [Cyclocreatine] (10 µM)	inactive: 0	inactive: 0	inactive: 0
8	COc1ccc(/C=C/C(=O)C2(C(=O)/C=C/c3ccc(OC)c(OC)c3)CCCCC2)cc1OC (2.5 µM)	inactive: 0	inactive: 0	inactive: 0

The results go on.

Row | SMILES | kinase-Nluc reporter destabilization hit call (IRAK3) | kinase-Nluc reporter destabilization hit call (JAK1) | kinase-Nluc reporter destabilization hit call (LCK) | kinase-Nluc reporter destabilization hit call (LIMK1) | kinase-Nluc reporter destabilization hit call (LIMK2) | kinase-Nluc reporter destabilization hit call (LMTK2) | kinase-Nluc reporter destabilization hit call (LYN) | kinase-Nluc reporter destabilization hit call (MAP2K1) | kinase-Nluc reporter destabilization hit call (MAP2K2) | kinase-Nluc reporter destabilization hit call (MAP4K2)
18 | O=C(Nc1cccc(Nc2ncc(Br)c(NCCc3cnc[nH]3)n2)c1)N1CCCC1 (10 µM) | inactive: 0 | inactive: 0 | inactive: 0 | inactive: 0 | inactive: 0 | inactive: 0 | inactive: 0 | inactive: 0 | inactive: 0 | inactive: 0
19 | C=CCc1ccc(O)c(-c2ccc(O)c(CC=C)c2)c1 [Honokiol] (10 µM) | inactive: 0 | inactive: 0 | inactive: 0 | inactive: 0 | inactive: 0 | inactive: 0 | inactive: 0 | inactive: 0 | inactive: 0 | inactive: 0
20 | COc1cc2ncnc(Nc3ccc(F)c(Cl)c3)c2cc1NC(=O)/C=C/CN1CCCCC1 [Dacomitinib] (10 µM) | inactive: 0 | inactive: 0 | inactive: 0 | inactive: 0 | inactive: 0 | inactive: 0 | inactive: 0 | inactive: 0 | inactive: 0 | inactive: 0
21 | O=C(CNc1cccc(Cl)c1)NC1CCCN(c2ncnc3[nH]ccc23)C1 (stereo not given) (10 µM) | inactive: 0 | inactive: 0 | inactive: 0 | inactive: 0 | inactive: 0 | inactive: 0 | inactive: 0 | inactive: 0 | inactive: 0 | inactive: 0
22 | C=CC(=O)Nc1cccc(CNc2nc(Nc3ccc(N4CCN(C)CC4)cc3OC)ncc2Cl)c1 (10 µM) | inactive: 0 | inactive: 0 | inactive: 0 | inactive: 0 | inactive: 0 | inactive: 0 | inactive: 0 | inactive: 0 | inactive: 0 | inactive: 0
23 | CC(C)(C)n1nc(Cc2ccccc2O)c2c(N)ncnc21 (10 µM) | inactive: 0 | inactive: 0 | inactive: 0 | inactive: 0 | inactive: 0 | inactive: 0 | inactive: 0 | inactive: 0 | inactive: 0 | inactive: 0
24 | Cc1ccc2c(Nc3cccc(Cl)c3F)nccc2c1NC(=O)c1csc2c(N)ncnc12 [Belvarafenib] (10 µM) | inactive: 0 | inactive: 0 | inactive: 0 | inactive: 0 | inactive: 0 | inactive: 0 | inactive: 0 | inactive: 0 | inactive: 0 | inactive: 0
25 | COc1ccc(N=Nc2c(N)n[nH]c2N)cc1 (10 µM) | inactive: 0 | inactive: 0 | inactive: 0 | inactive: 0 | inactive: 0 | inactive: 0 | inactive: 0 | inactive: 0 | inactive: 0 | inactive: 0
26 | CC(C)=CC(=O)O[C@H]1Cc2cc3ccc(=O)oc3cc2OC1(C)C [Decursin] (10 µM) | inactive: 0 | inactive: 0 | inactive: 0 | inactive: 0 | inactive: 0 | inactive: 0 | inactive: 0 | inactive: 0 | inactive: 0 | inactive: 0
27 | Nc1ncnc2c1c(COc1cccc(Cl)c1)nn2C1CCOCC1 (10 µM) | inactive: 0 | inactive: 0 | inactive: 0 | inactive: 0 | inactive: 0 | inactive: 0 | inactive: 0 | inactive: 0 | inactive: 0 | inactive: 0
28 | C[C@@H]1CN(c2cc(-c3n[nH]c4ccc(OC5(C)CC5)cc34)ncn2)C[C@H](C)O1 (10 µM) | inactive: 0 | inactive: 0 | inactive: 0 | inactive: 0 | inactive: 0 | inactive: 0 | inactive: 0 | inactive: 0 | inactive: 0 | inactive: 0
29 | CCN(CC)c1cc2oc(=O)c(-c3nc4ccccc4o3)cc2cc1C (2.5 µM) | inactive: 0 | inactive: 0 | inactive: 0 | inactive: 0 | inactive: 0 | inactive: 0 | inactive: 0 | inactive: 0 | inactive: 0 | inactive: 0
30 | C[C@@H]1O[C@@H](O[C@@H]2[C@@H](O)[C@H](OCCc3ccc(O)c(O)c3)O[C@H](CO)[C@H]2OC(=O)/C=C/c2ccc(O)c(O)c2)[C@H](O)[C@H](O)[C@H]1O [Verbascoside] (10 µM) | inactive: 0 | inactive: 0 | inactive: 0 | inactive: 0 | inactive: 0 | inactive: 0 | inactive: 0 | inactive: 0 | inactive: 0 | inactive: 0
31 | Cc1ccc(NC(=O)c2ccnc(C(F)(F)F)c2)cc1-c1cc(OCCO)nc(N2CCOCC2)c1 (10 µM) | inactive: 0 | inactive: 0 | inactive: 0 | inactive: 0 | inactive: 0 | inactive: 0 | inactive: 0 | inactive: 0 | inactive: 0 | inactive: 0
32 | CCc1ccc(OCC(=O)Nc2ccc(F)c([N+](=O)[O-])c2)cc1 (10 µM) | inactive: 0 | inactive: 0 | inactive: 0 | inactive: 0 | inactive: 0 | inactive: 0 | inactive: 0 | inactive: 0 | inactive: 0 | inactive: 0
33 | CC(C)N1CCN(c2ccc(Nc3ncc4cc5n(c4n3)C3(CCCCC3)CNC5=O)nc2)CC1 [Lerociclib (dihydrochloride)] (2 µM) | inactive: 0 | inactive: 0 | inactive: 0 | inactive: 0 | inactive: 0 | inactive: 0 | inactive: 0 | inactive: 0 | inactive: 0 | inactive: 0
